Record: PubChem BioAssay AID1159595 (NIAID, 2016)
Aim: 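Contribution of 126 core TLR signalling genes to the Pam3CSK4 inflammatory response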 (primary screen). System: mouse RAW264.7 macrophage reporter cells. Reagent: single siRNA against mouse genes. Timing: assayed 48 to 72 hours after siRNA transfection; ligand applied for 16 hours. Conditions: Pam3CSK4 (TLR2 ligand) for 16 hours before fixation; dose not given. Detection: 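Nuclear mCherry from a Tnf promoter reporter imaged after 16 h Pam3CSK4, 48–72 h post-transfection; background subtracted, plate median/MAD normalised, robust z-scores averaged over replicates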. Scale: Tnf reporter z-score (replicate mean): higher = stronger Tnf promoter reporter signal than negative control wells. Rule for the call: 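An siRNA is active when its replicate-mean z-score is -1.5 or lower or 1.5 or higher (activity score at least 50); activity graded at absolute z 1, 1.5, 2 and 2.5; calls apply to single siRNAs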. Meaning of the calls: active = strong change (up or down); inactive = little change.
This is an unselected part of 756 reagents tested. In the full data, 115 (15%) were called active. 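Active calls cover both lowered and raised reporter signal; each score refers to one siRNA rather than a whole gene.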 Reagents against one gene are numbered here. Not given: the amount of reagent.

gene | reagent | Tnf reporter z-score (replicate mean) | activity call
Traf3 | 1 | -0.899 | inactive
Traf3 | 2 | -0.569 | inactive
Traf3 | 3 | -0.103 | inactive
Traf3 | 4 | 0.309 | inactive
Traf3 | 5 | -1.41 | inactive
Traf3 | 6 | 0.00478 | inactive
Myd88 | 1 | -1.39 | inactive
Myd88 | 2 | -1.89 | active
Myd88 | 3 | -1.53 | active
Myd88 | 4 | -1.47 | inactive
Myd88 | 5 | -1.39 | inactive
Myd88 | 6 | -0.386 | inactive
Tlr8 | 1 | 1.9 | active
Tlr8 | 2 | 0.629 | inactive
Tlr8 | 3 | -0.159 | inactive
Tlr8 | 4 | 0.592 | inactive
Tlr8 | 5 | -1.84 | active
Tlr8 | 6 | 0.138 | inactive
Crebbp | 1 | 0.734 | inactive
Crebbp | 2 | -1.59 | active
Crebbp | 3 | -1.11 | inactive
Crebbp | 4 | -0.535 | inactive
Crebbp | 5 | -3.16 | active
Crebbp | 6 | -1.32 | inactive
Dab2ip | 1 | -0.144 | inactive
Dab2ip | 2 | -0.616 | inactive
Dab2ip | 3 | 1.62 | active
Dab2ip | 4 | -1.55 | active
Dab2ip | 5 | -0.771 | inactive
Dab2ip | 6 | 1.19 | inactive
Rac1 | 1 | 0.261 | inactive
Rac1 | 2 | 1.45 | inactive
Rac1 | 3 | -1.51 | active
Rac1 | 4 | -0.436 | inactive
Rac1 | 5 | -0.255 | inactive
Rac1 | 6 | 0.806 | inactive
Irf7 | 1 | -2 | active
Irf7 | 2 | -1.24 | inactive
Irf7 | 3 | -0.667 | inactive
Irf7 | 4 | 0.935 | inactive
Irf7 | 5 | 0.141 | inactive
Irf7 | 6 | 0.00285 | inactive
Irak2 | 1 | -0.923 | inactive
Irak2 | 2 | -1.8 | active
Irak2 | 3 | -1.8 | active
Irak2 | 4 | -1.48 | inactive
Irak2 | 5 | -1.71 | active
Irak2 | 6 | -1.93 | active
Il1b | 1 | 0.179 | inactive
Il1b | 2 | -0.642 | inactive
Il1b | 3 | -0.0071 | inactive
Il1b | 4 | 0.245 | inactive
Il1b | 5 | 0.132 | inactive
Il1b | 6 | -0.263 | inactive
Ccl3 | 1 | -0.642 | inactive
Ccl3 | 2 | 0.379 | inactive
Ccl3 | 3 | -0.813 | inactive
Ccl3 | 4 | -0.488 | inactive
Ccl3 | 5 | -0.172 | inactive
Ccl3 | 6 | -1.66 | active

8 successive entries already listed, quoted:
gene | reagent | Tnf reporter z-score (replicate mean) | activity call
Myd88 | 1 | -1.39 | inactive
Myd88 | 2 | -1.89 | active
Myd88 | 3 | -1.53 | active
Myd88 | 4 | -1.47 | inactive
Myd88 | 5 | -1.39 | inactive
Myd88 | 6 | -0.386 | inactive
Tlr8 | 1 | 1.9 | active
Tlr8 | 2 | 0.629 | inactive
